# Hit rate of the full screen: of about 340,000 compounds, about 170 (0.05%) were called active. The shares of active, inactive and inconclusive entries below differ from those in the screen. Calls follow the shape of the dose curve; as a rule, active = well fitted inhibition curve with a large enough effect in the signal ratio, with a control signal flat (not every such curve was filed as active); inconclusive = small, poorly fitted or top-dose-only effect, or effect the other way, or a change in a side signal; inactive = flat fitted curve, though single readings scatter; the % refers to the signal ratio. Potencies beside an inconclusive call are fits to weak or partial responses and may not hold up.
# Test: qHTS Assay to Find Inhibitors of Chronic Active B-Cell Receptor Signaling;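 as to activity change, negative = inhibition: plate controls were basal doxycycline-induced cells for no effect and cells given 10 µM MG132 for full effect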
# Details: ABC-DLBCL IkBa-CBG/CBR reporter, luminescence ratio (green luciferase fused to IkBa over red control in TMD8 lymphoma cells), 4 h; activity change, negative = inhibition: at 46.1 µM (top of the series) unless noted
# Summary of the method: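 TMD8 ABC-DLBCL cells carrying doxycycline-inducible green luciferase fused to IkappaBalpha plus unfused red luciferase were exposed to compounds (up to 46 uM) for 4 hrs at 37C. Activity came from the overlap-corrected green/red luminescence ratio.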
# Potency is read from the fitted curve at half-maximal effect.
SMILES,"activity change, negative = inhibition",Potency
Cc1nn(C)c(C)c1NC(=O)Nc1ccc(Cl)c(Cl)c1,inconclusive: 12%,–
Cc1cccc(OCc2occc2C(=O)Nc2cccc(-n3cnnn3)c2)c1,inactive: 1.28%,–
CCOC(=O)COc1ccc(S(=O)(=O)Nc2ccc(C)cc2)cc1,–,"inconclusive: 16.4 µM [falling, single point]"
Cc1[nH][nH]c(=O)c1C(c1ccc(-c2cccc(C(=O)O)c2)o1)c1c(C)[nH][nH]c1=O,inactive: -4.34%,–
Cc1cccc(N=C2C(=O)Nc3c(Cl)cccc32)c1,inconclusive: -7.71%,–
Cc1ccc(NC(=O)Nc2ccc3c(c2)OCO3)c(OC(F)F)c1,inactive: -1.51%,–
O=c1oc2ccccc2c(O)c1CN1CCCCC1,–,"inconclusive: 3.16 µM [falling, partial curve, poor fit]"
CCCc1nc2oc3c(NCCCN(C)C)ncnc3c2c2c1CCCC2,inconclusive: 21.5%,–
Cc1ccccc1OCc1nnc(SCCN2CCCC2)n1-c1ccccc1,–,"inconclusive: 14.1 µM [falling, partial curve, poor fit]"
O=C(Oc1ccc2cc(Br)ccc2c1)c1cccnc1,inconclusive: -3.41%,–
CC(SCc1ccccc1)C(=O)N/N=C/c1cc2c(cc1Br)OCO2 (stereo unspecified),inconclusive: -17.2%,–
Cc1nc(SCc2ccc(O)c([N+](=O)[O-])c2)n[nH]1,inactive: 0.938%,–
CN=C1S/C(=C\c2cc(C)n(-c3ccccc3F)c2C)C(=O)N1C,inactive: 8.67%,–
O=C(O)c1ccc(S(=O)(=O)NC2CCCCC2)cc1,inconclusive: 1.99%,–
CCN(CC)C(=O)c1sc2c(c1C)c(=O)n(Cc1ccccc1)c(=O)n2Cc1ccc(Cl)cc1,–,"inconclusive: 12.6 µM [rising, single point]"
O=C1Nc2cc(C(=O)N3CCC(N4CCCCC4)CC3)ccc2S/C1=C\c1ccccc1,inconclusive: -13.4%,–
CC1(C)CSC(=NCCc2ccccc2)N1,inconclusive: 1.57%,–
CC(=O)Nc1cc(C(=O)c2ccccc2)ccc1N1CCOCC1,inactive: -17.6%,–
Cc1cc(C(F)(F)F)n(-c2nc(C(=O)NNS(=O)(=O)c3ccccc3[N+](=O)[O-])cs2)n1,inconclusive: 10.4%,–
Cn1cnc([N+](=O)[O-])c1Sc1nnc(-c2cccnc2)n1C,–,"inconclusive: 12.6 µM [falling, partial curve, poor fit]"
Fc1ccc(C2Nc3cccc4cccc(c34)N2)cc1,inconclusive: -10.2%,–

# Two of these compounds, set out differently.
SMILES	activity change, negative = inhibition	Potency
CC1(C)CSC(=NCCc2ccccc2)N1	inconclusive: 1.57%	–
CC(=O)Nc1cc(C(=O)c2ccccc2)ccc1N1CCOCC1	inactive: -17.6%	–

# (listing goes on)

SMILES,"activity change, negative = inhibition",Potency
CC(=O)c1ccc2noc(-c3ccccc3)c2c1,inconclusive: 22.5%,–
CCOC(=O)c1sc(NC(=O)c2cccs2)cc1C,–,"inconclusive: 0.092 µM [falling, full curve, poor fit]"
CC(=O)c1ccc(N/N=C(/C(N)=O)C2=NC(C)(C)Cc3ccccc32)cc1,inactive: -0.0704%,–
CC1CCN(Cc2ccc(-c3nnn(CC(=O)Nc4ccccc4Cl)n3)cc2)CC1,inactive: -8.85%,–
COc1cc(/C=N/n2c(SC)nnc(C(C)(C)C)c2=O)ccc1O,inconclusive: -2.92%,–
COc1ccc(OCC2CCCN(Cc3nc(CC4CC4)no3)C2)cc1 (stereo unspecified),–,"inconclusive: 11.2 µM [falling, single point]"
CCN1CCN(C(C(=O)NC2CCCC2)c2ccc(Cl)cc2)CC1 (stereo unspecified),inactive: -0.568%,–
CS(=O)(=O)N1CCC(C(=O)NCc2ccc3c(c2)OCO3)CC1,inactive: -4.8%,–
O=S(=O)(Cc1ccc(Cl)cc1)NCc1ccc2c(c1)OCO2,inactive: 3.1%,–
COC(=O)CCc1sc(Nc2ccccc2)nc1-c1ccc(OC)cc1,inconclusive: -22.5%,–
CC(=O)Nc1ccc(NC(=O)C(C)OC(=O)c2cc(S(=O)(=O)N(C)C)ccc2N2CCCC2)cc1 (stereo unspecified),inconclusive: 3.58%,–
Cn1nnc2c(NCCc3ccccc3)ncnc21,–,"inconclusive: 0.708 µM [rising, partial curve, poor fit]"
CCCN(CCC)CCCNC(=O)c1cc2c(=O)n(C)c3ccccc3c2n1C,inconclusive: -18%,–
Cc1cc(S(=O)(=O)N2CCCCC2)ccc1OCC(=O)N1CCOCC1,inactive: 3.37%,–
O=C(O)c1cn2c3c(ccc(Cl)c3c1=O)OCC2,inactive: 0.479%,–
O=C(NNC(=S)Nc1cccc(C(F)(F)F)c1)c1cccc(Cl)c1,inconclusive: -14.6%,–
CCCCc1ccc(NC(=O)CSc2nc(=O)n(CCN(CC)CC)c3c2CCCC3)cc1,inactive: -10.5%,–
Cc1ccc2nc3c(cc2c1)c(NC(=O)c1ccco1)nn3CC(C)C,–,"inconclusive: 10 µM [rising, partial curve, poor fit]"
Cc1cc(C)cc(NS(=O)(=O)c2ccc(Oc3ncc(C(F)(F)F)cc3Cl)cc2)c1,inconclusive: -6.27%,–
CC(=O)Nc1cc(C(=O)NCc2ccco2)ccc1Sc1ccc(F)cc1,inactive: 8.45%,–

# From PubChem BioAssay AID493014 (National Center for Advancing Translational Sciences (NCATS), 2011)
